Our source for the binding values is article doi:10.1101/2023.10.10.561251.

Test [1] deals with T1, VIPP1-YFP (Arabidopsis thaliana Vesicle-Inducing Protein in Plastids 1 with a C-terminal YFP) (A. thaliana) (UniProt O80796).
T1 sequence: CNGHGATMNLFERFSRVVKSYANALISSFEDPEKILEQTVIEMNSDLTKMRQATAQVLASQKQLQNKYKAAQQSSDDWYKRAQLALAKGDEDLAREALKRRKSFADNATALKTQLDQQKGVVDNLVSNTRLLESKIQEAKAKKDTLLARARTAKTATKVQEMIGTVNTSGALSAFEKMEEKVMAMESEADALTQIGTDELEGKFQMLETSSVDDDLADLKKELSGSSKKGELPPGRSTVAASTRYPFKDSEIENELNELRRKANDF
Nature of the test: affinity purification with mass spectrometry.

The target in test [2] is T2, VIPP1-YFP (Arabidopsis thaliana Vesicle-Inducing Protein in Plastids 1 with a C-terminal YFP) (A. thaliana), O80796.
T2 chain: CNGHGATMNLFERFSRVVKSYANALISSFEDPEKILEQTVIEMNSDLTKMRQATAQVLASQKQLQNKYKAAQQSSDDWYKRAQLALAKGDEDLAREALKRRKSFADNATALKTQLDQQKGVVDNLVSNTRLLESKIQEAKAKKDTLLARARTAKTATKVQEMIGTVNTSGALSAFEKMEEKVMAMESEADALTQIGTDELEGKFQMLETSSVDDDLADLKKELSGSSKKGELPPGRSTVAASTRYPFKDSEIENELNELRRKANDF
Kind of test: affinity purification with mass spectrometry. The following applies: remark: other sources report otherwise.

No constants are given. Whether binding was seen depends on the method and setting. Binding seen in cells or lysates may run through a third protein. These calls come from enrichment with a bait or labelling near it, and not all partners need be listed. Sequences can lack the tags named with a protein.

As to “chaperone Dna-J domain-containing protein C73”, in test [1], the binding entry is “binds”.

With “small subunit of the Acetolactate Synthase protein complex (ALS-2)”, the binding entry in test [1] is reported as “binds”.

B1: VIPP1-Associated protein 1 (At5g03900), endogenous (protein, UniProt Q8GW20 64-523)
chain: ASLDKVSGAIKPGGLVESDKLPTDVRKRAMDAVDECGRRVTVGDVASRGGLKVTEAQTALQAIAADTDGFLEVSDEGDVLYVFPRDYRTKLAAKSLRIQIEPFLEKAKGAVDYLARVSFGTALIASIVIVYTSIIALLSSKSEDDNRQRRRGRSYDSGFNFYINPVDLLWYWDPNYYNRRRAREDEGKGMNFIESVFSFVFGDGDPNQGIEEERWQMIGQYITSRGGVVAADELAPYLDVPSSKSAMNDESYILPVLLRFDGQPELDEEGNILYCFPSLQRTASGSSRRKEYVGKWFDWVADMEKFFKEKKWQFSKTSTSERALVIGLGAVNLFGVIVLNTLLNEMSVRPGGFLTFVKNIYPLLQIYAGSFFTIPLIRWFSIKRKNNQIENRNKARLQFARALESPDIALRRKLLSARDMAQKTVIGKDRIVYSTDRDMMEQNYETDEWDRRFKELEKSD
For B1, the binding entry in test [1] is “binds”.

B2: plastid-encoded NAD(P)H-quinone oxidoreductase subunit I, P56755 1-172 (protein)
chain: MLPMITGFMNYGQQTLRAARYIGQGFMITLSHTNRLPVTIQYPYEKLITSERFRGRIHFEFDKCIACEVCVRVCPIDLPVVDWKLETNIRKKRLLNYSIDFGICIFCGNCVEYCPTNCLSMTEEYEFSTYDRHELNYNQIALGRLPMSVIDDYTIRTIWNSPQTKNGVNPLI
For the molecule B2, in test [2], the binding entry was “binds”.
